PubChem BioAssay AID1053208, Peter MacCallum Cancer Centre | 2014
Here is one part, drawn at random, of about 17,000 reagents tested. Over the whole deposit, 788 (4.7%) got an active call. 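Calls rest on z-score classes alone; an extra cut-off of viability at most 70% of control was not applied to them.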 Unmarked entries are inactive. Not all columns of the deposit are shown.

Screen: 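Find knock-downs that sensitise mouse osteosarcoma cells to doxorubicin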 (primary screen)
Cell system: mouse osteosarcoma cells, early-passage culture from an engineered mouse model of fibroblastic bone tumour
Reagent: siRNA pool against mouse genes, 40 nM
Duration: about 120 h (48 h before drug, then 72 h with drug)
Challenge: doxorubicin 100 nM for 72 h, roughly 30-40% inhibitory dose
Measured: 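Luminescent ATP signal taken as viability with or without 100 nM doxorubicin for 72 h; mean of two wells set against non-targeting siRNA and turned into robust z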
Scale: viability z-score with doxorubicin: higher = more viable cells under doxorubicin; viability z-score without drug: higher = more viable cells with knock-down alone
Hit rule: 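Called active if knock-down leaves viability unchanged without drug (z within -2 to 2) but lowers it with doxorubicin (z at or under -2)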

Ryr3 [SID152276489]: combined z-score class = high cell count without drug only; viability z-score with doxorubicin = 1.12; viability z-score without drug = 2.87
Appl2 [SID152264861]: combined z-score class = no change with or without drug; viability z-score with doxorubicin = -0.45; viability z-score without drug = 0.34
Mindy4 [SID152331934]: combined z-score class = no change with or without drug; viability z-score with doxorubicin = -0.45; viability z-score without drug = 0.17
Atp13a4 [SID152263617]: combined z-score class = no change with or without drug; viability z-score with doxorubicin = -1.69; viability z-score without drug = -1.18
Itgb1 [SID152294519]: combined z-score class = no change with or without drug; viability z-score with doxorubicin = -1.12; viability z-score without drug = -0.84
Fmr1nb [SID152287438]: combined z-score class = no change with or without drug; viability z-score with doxorubicin = 0.79; viability z-score without drug = 0.17
Gtf3c5 [SID152260008]: combined z-score class = no change with or without drug; viability z-score with doxorubicin = 0.45; viability z-score without drug = 0.84
Egfbp2 [SID152293454]: combined z-score class = no change with or without drug; viability z-score with doxorubicin = 1.57; viability z-score without drug = 1.18
Dzank1 [SID152322091]: combined z-score class = no change with or without drug; viability z-score with doxorubicin = 0.22; viability z-score without drug = 1.01
Firrm [SID152330073]: combined z-score class = no change with or without drug; viability z-score with doxorubicin = 0; viability z-score without drug = 0.84
Mapk1 [SID152292499]: combined z-score class = no change with or without drug; viability z-score with doxorubicin = 1.69; viability z-score without drug = 0.51
Kank2 [SID152298731]: combined z-score class = no change with or without drug; viability z-score with doxorubicin = -0.67; viability z-score without drug = 1.18
Fsaf1 [SID152301092]: combined z-score class = no change with or without drug; viability z-score with doxorubicin = -0.22; viability z-score without drug = -0.17
Sil1 [SID152330657]: combined z-score class = no change with or without drug; viability z-score with doxorubicin = -1.8; viability z-score without drug = -0.17
Abraxas2 [SID152305307]: combined z-score class = no change with or without drug; viability z-score with doxorubicin = -0.9; viability z-score without drug = -0.67
Gm20555 [SID152310869]: combined z-score class = high cell count without drug only; viability z-score with doxorubicin = 1.01; viability z-score without drug = 2.02
Pacsin2 [SID152277718]: combined z-score class = no change with or without drug; viability z-score with doxorubicin = -1.8; viability z-score without drug = -0.84
Duox2 [SID152311124]: combined z-score class = low cell count without drug only; viability z-score with doxorubicin = -0.22; viability z-score without drug = -6.91
Ptpra [SID152260981]: combined z-score class = no change with or without drug; viability z-score with doxorubicin = 0.45; viability z-score without drug = 0.17
Dll4 [SID152264494]: combined z-score class = no change with or without drug; viability z-score with doxorubicin = 0.22; viability z-score without drug = 0.17
Kcne5 [SID152262367]: combined z-score class = no change with or without drug; viability z-score with doxorubicin = -0.45; viability z-score without drug = 0.51
Yju2b [SID152319818]: combined z-score class = high cell count without drug only; viability z-score with doxorubicin = -0.11; viability z-score without drug = 2.87
Nyap1 [SID152260411]: combined z-score class = no change with or without drug; viability z-score with doxorubicin = 0.9; viability z-score without drug = 0.51
Lpcat1 [SID152309757]: combined z-score class = no change with or without drug; viability z-score with doxorubicin = -1.57; viability z-score without drug = -0.84
Cdk16 [SID152282713]: combined z-score class = no change with or without drug; viability z-score with doxorubicin = -0.22; viability z-score without drug = -0.51
Eps8l1 [SID152340935]: combined z-score class = no change with or without drug; viability z-score with doxorubicin = -1.35; viability z-score without drug = -0.17
Hap1 [SID152286171]: combined z-score class = no change with or without drug; viability z-score with doxorubicin = 1.24; viability z-score without drug = -1.69
Tbc1d10b [SID152274759]: combined z-score class = low cell count with and without drug; viability z-score with doxorubicin = -3.93; viability z-score without drug = -2.53

3 consecutive entries from above, quoted:
Duox2 [SID152311124]: combined z-score class = low cell count without drug only; viability z-score with doxorubicin = -0.22; viability z-score without drug = -6.91
Ptpra [SID152260981]: combined z-score class = no change with or without drug; viability z-score with doxorubicin = 0.45; viability z-score without drug = 0.17
Dll4 [SID152264494]: combined z-score class = no change with or without drug; viability z-score with doxorubicin = 0.22; viability z-score without drug = 0.17
